Data taken from publication PMC3998894.
Results are given in words; binding and its absence hold for the method and conditions named. Binding calls can cover weak binding; strength is not graded here. Tags and fused reporters may be left off the sequences shown. For some assays here: Binding seen in cells or lysates may run through a third protein.

Experiments:
[1] = molecular target: T1, POD-6 (yeast two-hybrid fusion) (N. crassa) (UniProt V5IQR8); assay: two-hybrid; Matchmaker Two-Hybrid system 3; Gal4 activation domain (pGADT7) and DNA-binding domain (pGBKT7) fusions co-expressed in S. cerevisiae AH109; growth on SD lacking adenine, histidine, leucine and tryptophan or on SD with 10 mM 3-amino-1,2,4-triazole lacking leucine, tryptophan and histidine
T1 sequence: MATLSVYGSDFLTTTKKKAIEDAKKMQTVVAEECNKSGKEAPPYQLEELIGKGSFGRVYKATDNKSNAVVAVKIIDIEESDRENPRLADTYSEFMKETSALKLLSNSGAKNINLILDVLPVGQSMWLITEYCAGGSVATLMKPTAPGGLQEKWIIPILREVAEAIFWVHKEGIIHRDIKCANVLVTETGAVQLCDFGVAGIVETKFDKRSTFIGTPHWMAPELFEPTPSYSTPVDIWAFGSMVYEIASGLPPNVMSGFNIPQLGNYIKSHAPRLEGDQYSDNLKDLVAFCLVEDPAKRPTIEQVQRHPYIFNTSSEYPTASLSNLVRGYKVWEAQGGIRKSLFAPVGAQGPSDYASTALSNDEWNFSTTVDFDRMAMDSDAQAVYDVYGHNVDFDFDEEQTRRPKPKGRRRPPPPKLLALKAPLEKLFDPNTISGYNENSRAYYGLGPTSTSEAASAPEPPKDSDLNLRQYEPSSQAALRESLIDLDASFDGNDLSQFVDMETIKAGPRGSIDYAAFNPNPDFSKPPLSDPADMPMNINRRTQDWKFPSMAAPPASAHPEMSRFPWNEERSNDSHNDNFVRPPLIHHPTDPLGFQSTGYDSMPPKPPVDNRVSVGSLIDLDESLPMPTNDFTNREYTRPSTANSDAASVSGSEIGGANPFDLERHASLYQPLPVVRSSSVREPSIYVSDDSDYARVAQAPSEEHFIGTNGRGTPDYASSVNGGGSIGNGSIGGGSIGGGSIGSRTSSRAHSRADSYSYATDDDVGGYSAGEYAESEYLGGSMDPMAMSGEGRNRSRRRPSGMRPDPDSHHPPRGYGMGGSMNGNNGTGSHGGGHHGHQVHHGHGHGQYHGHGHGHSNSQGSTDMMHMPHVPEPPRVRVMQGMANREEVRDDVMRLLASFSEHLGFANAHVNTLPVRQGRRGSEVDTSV

MST-1-GFP (N. crassa) = assay: co-IP; cell extracts from fused heterokaryotic N. crassa strains co-expressing both tagged proteins; beads washed twice with IP buffer (50 mM Tris/HCl pH 7.5, 100 mM KCl, 10 mM MgCl2, 0.1% NP-40); Western blot

## MST-1 (yeast two-hybrid fusion) (N. crassa) (enzyme)
[1]
  binding: binds

B1: HA-POD-6 (enzyme, UniProt V5IQR8 1-928)
chain: MATLSVYGSDFLTTTKKKAIEDAKKMQTVVAEECNKSGKEAPPYQLEELIGKGSFGRVYKATDNKSNAVVAVKIIDIEESDRENPRLADTYSEFMKETSALKLLSNSGAKNINLILDVLPVGQSMWLITEYCAGGSVATLMKPTAPGGLQEKWIIPILREVAEAIFWVHKEGIIHRDIKCANVLVTETGAVQLCDFGVAGIVETKFDKRSTFIGTPHWMAPELFEPTPSYSTPVDIWAFGSMVYEIASGLPPNVMSGFNIPQLGNYIKSHAPRLEGDQYSDNLKDLVAFCLVEDPAKRPTIEQVQRHPYIFNTSSEYPTASLSNLVRGYKVWEAQGGIRKSLFAPVGAQGPSDYASTALSNDEWNFSTTVDFDRMAMDSDAQAVYDVYGHNVDFDFDEEQTRRPKPKGRRRPPPPKLLALKAPLEKLFDPNTISGYNENSRAYYGLGPTSTSEAASAPEPPKDSDLNLRQYEPSSQAALRESLIDLDASFDGNDLSQFVDMETIKAGPRGSIDYAAFNPNPDFSKPPLSDPADMPMNINRRTQDWKFPSMAAPPASAHPEMSRFPWNEERSNDSHNDNFVRPPLIHHPTDPLGFQSTGYDSMPPKPPVDNRVSVGSLIDLDESLPMPTNDFTNREYTRPSTANSDAASVSGSEIGGANPFDLERHASLYQPLPVVRSSSVREPSIYVSDDSDYARVAQAPSEEHFIGTNGRGTPDYASSVNGGGSIGNGSIGGGSIGGGSIGSRTSSRAHSRADSYSYATDDDVGGYSAGEYAESEYLGGSMDPMAMSGEGRNRSRRRPSGMRPDPDSHHPPRGYGMGGSMNGNNGTGSHGGGHHGHQVHHGHGHGQYHGHGHGHSNSQGSTDMMHMPHVPEPPRVRVMQGMANREEVRDDVMRLLASFSEHLGFANAHVNTLPVRQGRRGSEVDTSV
MST-1-GFP (N. crassa)
  binding: binds
